These are yes or no findings as the source states them, for the method shown. Binding seen in cells or lysates may run through a third protein. For some of these results: Binding can be weak; no strength is given. For some of these results: Where a sequence is shown, tags or fusion partners need not be part of it.

From PMC10089156 come the findings set out here.

In experiment [1] the target is T1, AtEDS1-nVenus (Arabidopsis) (UniProt Q9SU72).
T1 sequence: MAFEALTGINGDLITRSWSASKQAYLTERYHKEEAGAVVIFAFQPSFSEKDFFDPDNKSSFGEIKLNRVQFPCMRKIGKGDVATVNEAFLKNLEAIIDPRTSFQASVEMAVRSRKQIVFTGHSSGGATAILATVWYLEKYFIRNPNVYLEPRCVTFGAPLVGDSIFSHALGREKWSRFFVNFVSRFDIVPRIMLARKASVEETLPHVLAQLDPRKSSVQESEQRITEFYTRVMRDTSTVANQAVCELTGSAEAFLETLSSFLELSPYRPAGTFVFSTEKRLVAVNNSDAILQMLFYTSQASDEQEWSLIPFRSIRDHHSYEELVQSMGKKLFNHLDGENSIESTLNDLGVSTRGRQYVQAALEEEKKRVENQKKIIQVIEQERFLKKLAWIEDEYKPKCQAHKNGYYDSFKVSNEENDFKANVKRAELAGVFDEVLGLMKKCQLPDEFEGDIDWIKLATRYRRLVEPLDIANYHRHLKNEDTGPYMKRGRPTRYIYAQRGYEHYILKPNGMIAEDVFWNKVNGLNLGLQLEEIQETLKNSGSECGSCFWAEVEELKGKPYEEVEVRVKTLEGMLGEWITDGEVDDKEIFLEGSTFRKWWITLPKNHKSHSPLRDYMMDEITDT
Nature of the experiment: split reporter; BiFC (cCFP + nVenus), 35S promoter-driven constructs Agro-infiltrated into N. benthamiana epss leaves (third component co-expressed, e.g. AtSAG101-Flag), Pf0-1 XopQ infiltrated at 48 hpi, imaged 4 to 6 h later; cells with YFP signal in nuclei or PM/cytoplasm counted.

The target of experiment [2] is NRG1.2^EEAA-FLAG (Arabidopsis). Nature of the experiment: co-IP; anti-FLAG M2 affinity gel IP from lysates of N. benthamiana leaves transiently co-expressing NRG1.2^EEAA-FLAG, EDS1-V5, SAG101-Myc and the TIR-only protein RBA1.
Experiment [3] deals with NRG1.2^EEAA-FLAG (Arabidopsis). Nature of the experiment: condition: only coexpressed with enzymatically inactive RBA1^E86A instead of RBA1; co-IP; as a8, but co-expressed with the enzymatically inactive NADase mutant RBA1^E86A instead of RBA1.
Experiment [4] has as its target NRG1.1-cCFP (Arabidopsis stable line) (Arabidopsis). Nature of the experiment: split reporter; BiFC (cCFP + nVenus) in leaves of native promoter-driven Arabidopsis stable lines, live cell imaging 4 to 6 h after Pf0-1 AvrRps4.
Experiment [5] has the same target. Nature of the experiment: split reporter; BiFC (cCFP + nVenus) in leaves of Arabidopsis stable lines in the absence of an effector (Pf0-1 EV or mock).
For experiment [6], the target named is NRG1.2-FLAG (Arabidopsis). Nature of the experiment: co-IP; as a1, but leaves without recognised effector: uninfiltrated (preactivation), MgCl2 mock or Pf0-1 AvrRps4^EEAA.
Experiment [7] deals with NRG1.2-FLAG (Arabidopsis). Nature of the experiment: co-IP; anti-FLAG M2 affinity gel IP of NRG1.2-FLAG from Arabidopsis leaf lysates (100 mM HEPES pH 7.5, 300 mM NaCl, 5 mM MgCl2, 0.5% NP-40 substitute, 10% glycerol, 4 °C), 3xFLAG peptide elution, SDS-PAGE and western blot; leaves with recognised effector: Pf0-1 AvrRps4 (4 and 8 hpi), β-estradiol-induced AvrRps4-mCherry, or β-estradiol with Pf0-1 AvrRps4^EEAA. (In western blotting, separated proteins are transferred to a membrane and probed.)

Experiment [8] addresses NRG1.2-FLAG (Arabidopsis). Nature of the experiment: co-IP + native gel or EMSA; anti-FLAG IP of NRG1.2-FLAG from Arabidopsis leaf lysates after Pf0-1 AvrRps4 (8 hpi) or β-estradiol with or without Pf0-1 AvrRps4^EEAA, 3xFLAG peptide elution products resolved by BN-PAGE (3 to 12% Bis-Tris) and western blot.
Experiment [9] deals with AtNRG1.1-cCFP (Arabidopsis). Nature of the experiment: split reporter; BiFC (cCFP + nVenus) in N. benthamiana epss leaves in the absence of an effector (Pf0-1 EV or mock).
Experiment [10] addresses AtNRG1.1-cCFP (Arabidopsis). Nature of the experiment: split reporter; BiFC (cCFP + nVenus), 35S promoter-driven constructs Agro-infiltrated into N. benthamiana epss leaves (third component co-expressed, e.g. AtSAG101-Flag), Pf0-1 XopQ infiltrated at 48 hpi, imaged 4 to 6 h later; cells with YFP signal in nuclei or PM/cytoplasm counted.
Experiment [11] deals with AtNRG1.1^EEAA-cCFP (Arabidopsis). The description is as above.

On to AtSAG101-cCFP (from UniProt Q4F883), for which the binding result in [1] was “binds”.

B1: SAG101-Myc (protein, UniProt Q4F883 28-537)
chain: KILEIHNPPYSNHDPGLQVSKKKKDSGLEFQIHREEKFTLVVFSAPPICRSSSSDSTLLHVKDKENPFPFLCSENNPSFSLHTPAFNLFTSASTSLTYLKSELLQTLKSEKPVIITGAALGGSVASLYTLWLLETIEPTLKRPLCITFGSPLIGDASLQQILENSVRNSCFLHVVSAQTRIKMDFFKPFGTFLICFDSGCVCIEDHVAVTELLNGVHDSGLVDYSQVLNRLDQSMLSLADSRLIPEDVIKGIEKRAEMKNLRFDMMFKKLNDMKISMAYIEWYKKKCKEVKIGYYDRFKTQLAFPSKEFDINIKNHHKSELNRFWKSVVEEVERRPQSDASILKRRFLFSGNNYRRMIEPLDIAEYYLEGRKEYRTTGRSHHYVMLEKWFGMESILIEKERCKKRDLSDLLTFDSCFWAEVEDSLIVINQLNTTVGMRDDVREVLTRKLVEFEGYVWEIITKREVSPEIFLEESSFMKWWKEYKKIKGFNSSYLTEFMNTRKYESYGKSQ
On to B1, for which the binding entry was “binds” in [2] and “no binding” in [3].

B2: SAG101-nVenus (Arabidopsis stable line) (protein, UniProt Q4F883 28-537)
chain: B1 chain
On to B2, for which the results for the binding entry in [4] and in experiment [5] were “binds” and “no binding (only in the absence of an effector)”, respectively.

B3: EDS1-V5 (protein, UniProt Q9SU72 1-623)
chain: T1 sequence
Regarding B3, the binding entry in experiment [6] is listed as “binds weakly”; in experiment [7], “binds”; in [8], “binds”.

B4: EDS1-V5 (N. benthamiana transient) (protein, UniProt Q9SU72 1-623)
chain: T1 sequence
For B4, the binding result in experiment [2] is on record as “binds”; in experiment [3], “no binding”.

B5: AtEDS1-nVenus (protein, UniProt Q9SU72 1-623)
chain: T1 sequence
Turning to B5, the binding entry in experiment [9] is listed as “no binding (only in the absence of an effector)”; in [10], “binds”; in [11], “binds”.
